Assay results reported in PubChem BioAssay AID1688 (National Center for Advancing Translational Sciences (NCATS), 2009).
Out of some 220,000 compounds screened, about 2,400 (1.1%) were called active. The shares of active, inactive and inconclusive entries below differ from those in the screen. Calls follow the shape of the dose curve; as a rule, active = well fitted inhibition curve with a large enough effect; inconclusive = small, poorly fitted or top-dose-only effect, or effect the other way; inactive = no such curve, though single readings can be large or run the other way. A potency beside an inconclusive call is a rough fit, not a confirmed value.

Test: qHTS Multiplex Assay to Identify Dual Action Probes in a Cell Model of Huntington: Aggregate Formation (GFP); also: nearly all actives have a fitted effect of over 60% in size
Conditions: PC12 HttQ103-GFP aggregates, Acumen cytometry, 40 h; activity change, negative = inhibition: at 46.1 µM (top of the series) unless noted
Procedure, shortened: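 Compounds (qHTS titration) were added to PC12 cells expressing an ecdysone-driven HTT exon 1 Q103–GFP fusion after induction with 100 nM tebufenozide. Aggregate formation was measured as GFP objects in cell lysates.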
% is scaled to controls: 0 for no effect and ±100 for the full control effect; potency is read from the fitted curve at half-maximal effect.

Structure (SMILES) | Potency | activity change, negative = inhibition
CCN(CC)C(=O)CSc1ncnc2c1nnn2-c1ccc(F)cc1 | inconclusive: 20 µM [activator, partial curve, poor fit] | –
Cc1cc(=O)oc2c1c(C)nn2-c1ccc(C(=O)OC(C)C)cc1 | inconclusive: 1.26 µM [inhibitor, single point] | –
O=[N+]([O-])c1ccc(/C=C/c2ccc3ccccc3n2)cc1 | inconclusive: 2.51 µM [inhibitor, full curve] | –
O=C(Cc1n[nH]c(=O)c2ccccc12)Nc1ccc(-c2nnc3n2CCCCC3)cc1 | – | inactive: -4.82% [at 9.22 µM]
Cc1ccc(C)c(NC(=O)CN(C)C(=O)CCN2C(=O)c3ccccc3C2=O)c1 | active: 14.1 µM | –
O=C(CN1CCN(c2ccc(F)cc2)CC1)Nc1nnc(-c2ccccc2)s1 | inactive | –
COC(=O)c1c(NC(=O)Nc2ccc(Cl)cc2)sc(C)c1C | inactive | –
CCC(=O)NC(c1ccc(C)cc1)c1cc([N+](=O)[O-])c2cccnc2c1O (centres undefined) | active: 7.94 µM | –
O=C(COC(=O)C1CC(=O)N(Cc2ccco2)C1)c1ccc(OC(=O)c2ccco2)cc1 (centres undefined) | inactive | –
CCCS(=O)(=O)c1c(S(=O)(=O)CCC)c2c3ccccc3ccn2c1C(=O)OC | inactive | –
CC(C(=O)Nc1ccc2c(c1)OCCO2)N(C)Cc1c(F)cccc1Cl (centres undefined) | inconclusive: 35.5 µM [inhibitor, single point] | –
Cc1ccc(C)c(NC(=O)C(c2ccccc2)N2CCOCC2)c1 (centres undefined) | inactive | –
COc1ccc(CNCCC(c2ccccc2)c2ccc3c(c2)OCO3)cc1 (centres undefined) | inconclusive: 35.5 µM [inhibitor, single point] | –
Cn1c(/C=C/c2ccc([N+](=O)[O-])o2)nc2ccccc2c1=O | active: 10 µM | –
Cc1cccc(Nc2cc(=O)[nH]c(=O)[nH]2)c1C | inactive | –
C/C(=N\NC(=O)OC(C)(C)C)c1ccccc1Br | inconclusive: 3.55 µM [activator, partial curve] | –
COc1ccccc1NC1=C(C)C(=O)CC1 | inconclusive: 11.2 µM [activator, single point] | –
C/C(=N\O)C(C)(C)Nc1cccc(Br)c1 | – | inactive: 9.46% [at 9.22 µM]
CC(C)Oc1ccc(CNC(=O)CC(c2ccccc2)c2cc(Cl)ccc2O)cc1 (centres undefined) | inconclusive: 35.5 µM [inhibitor, single point] | –
Cc1cc(C)nc(SC2CCCCC2O)n1 (centres undefined) | inconclusive: 0.891 µM [activator, partial curve] | –
COc1ccccc1-c1c(C)nn2c(N3CCCCCC3)cc(C)nc12 | inconclusive: 14.1 µM [inhibitor, single point] | –
COc1ccc(OCCSc2ncnc3nc[nH]c23)cc1 | inactive | –
COc1ccc(C)cc1-n1nnnc1SCc1cn2ccsc2n1 | inactive | –

Structure (SMILES) | Potency | activity change, negative = inhibition
CCOC(=O)Cc1csc(NC(=O)Cc2ccc(Cl)cc2)n1 | – | inactive: -5.66% [at 9.22 µM]
Cc1ccc(/C=C/C(=O)N2CCN(S(=O)(=O)c3ccc(C)c(C)c3)CC2)o1 | inconclusive: 8.91 µM [activator, partial curve] | –
CC(C)N1CCc2c(sc(NC(=O)c3ccc(S(=O)(=O)N4CCc5ccccc54)cc3)c2C(N)=O)C1 | – | inactive: -8.29% [at 9.22 µM]
CCOC(=O)N/N=C\c1ccc([N+](=O)[O-])s1 | inconclusive: 35.5 µM [inhibitor, single point] | –
COc1ccc(-n2c(N)c(C#N)c3ccc([N+](=O)[O-])cc3c2=O)cc1 | inconclusive: 3.16 µM [inhibitor, single point] | –
Cc1c(-n2c(O)c(C3=c4ccccc4=NC3=O)sc2=S)c(=O)n(-c2ccccc2)n1C | inactive | –
Cc1nn(-c2ccccc2)c2sc(C(=O)NC3CC3)cc12 | inconclusive: 0.891 µM [inhibitor, full curve, poor fit] | –
C/C(=N/NS(=O)(=O)c1ccc(Br)cc1)c1ccc(NC(=O)c2ccc(C)o2)cc1 | inconclusive: 35.5 µM [inhibitor, single point] | –
O=C(Nc1ccc2c(c1)oc1ccccc12)C1CC1 | inconclusive: 10 µM [inhibitor, partial curve] | –
Cc1cccc2cc(CN(Cc3cccs3)C(=S)NCC3CCCO3)c(=O)[nH]c12 (centres undefined) | inconclusive: 1.26 µM [inhibitor, single point] | –
Cc1cc(Cl)ccc1NC(=S)NCCC(c1ccccc1)c1ccccc1 | inconclusive: 14.1 µM [inhibitor, single point] | –
CC(C)(C)c1ccc(C(=O)Nc2ccc(N3CCOCC3)cc2)cc1 | inactive | –
COC(=O)c1c(NC(=O)CN2CCN(c3cccc(Cl)c3)CC2)sc(C)c1C | inconclusive: 5.62 µM [inhibitor, single point] | –
CCCOC(=O)c1ccc(NC(=O)/C=C/c2cccs2)cc1 | inactive | –
Cc1cccc(NC(=O)CSc2ncnc3c2oc2ccccc23)c1 | inactive | –
COc1cc(NC(=O)c2ccco2)c(OC)cc1NC(=O)c1cc(OC)c(OC)c(OC)c1 | inconclusive: 12.6 µM [inhibitor, partial curve, poor fit] | –
O=C(Nc1ccc(Cl)cc1C(=O)NCc1cccnc1)c1ccc(Cl)cc1Cl | inconclusive: 12.6 µM [inhibitor, single point] | –
O=C(CSc1nc2ccccc2c(=O)n1-c1ccccc1)N1CCc2ccccc2C1 | inconclusive: 14.1 µM [inhibitor, single point] | –
CC(NC(=O)/C(=C/c1ccc(OC(F)F)cc1)c1ccccc1)c1ccccc1 (centres undefined) | inconclusive: 35.5 µM [inhibitor, single point] | –
Cc1cc(C(=O)CSc2n[nH]c(-c3ccccc3F)n2)c(C)n1Cc1cccs1 | inconclusive: 35.5 µM [inhibitor, single point] | –
O=C(O)COc1ccccc1/C=C1\SC(=O)N(Cc2ccc(F)cc2)C1=O | inconclusive: 2.24 µM [activator, full curve, poor fit] | –
N#Cc1ccc(NCCc2ccccn2)c([N+](=O)[O-])c1 | – | inactive: 6.93% [at 9.22 µM]
CC#CC[N+](C)(C)CCCCCCCCCCCC | inconclusive: 8.91 µM [inhibitor, partial curve] | –

Looked up above:
Potency with COc1cc(NC(=O)c2ccco2)c(OC)cc1NC(=O)c1cc(OC)c(OC)c(OC)c1 is entered as inconclusive: 12.6 µM [inhibitor, partial curve, poor fit]
Potency with O=C(Nc1ccc2c(c1)oc1ccccc12)C1CC1 is entered as inconclusive: 10 µM [inhibitor, partial curve]
Potency with Cc1cccc(NC(=O)CSc2ncnc3c2oc2ccccc23)c1 is entered as inactive

More results follow.

Structure (SMILES) | Potency | activity change, negative = inhibition
Cc1ccc(NS(=O)(=O)c2ccc3c(c2)c(=O)n(C)c(=O)n3C)cc1F | inconclusive: 7.08 µM [inhibitor, partial curve] | –
Cc1ccc2[nH]c3c(N4CCN(Cc5ccccc5)CC4)ncnc3c2c1 | inconclusive: 17.8 µM [inhibitor, single point] | –
CC(=O)Oc1cc2oc(=O)cc(C)c2cc1Cl | – | inactive: -1.45% [at 9.22 µM]
CCN1C(=O)c2cccc3c(NC(=O)c4ccc(S(=O)(=O)N(C)C)cc4)ccc1c23 | inactive | –
CC/C(=N/O)C(=O)c1ccc(Br)cc1 | inconclusive: 0.562 µM [activator, partial curve, poor fit] | –
O=C1c2ccccc2NC(c2cn[nH]c2-c2ccc(Cl)cc2)N1O (centres undefined) | inconclusive: 7.94 µM [inhibitor, partial curve] | –
CCC(=O)NCCc1nc2ccccc2n1CC(=O)c1ccccc1 | inconclusive: 0.562 µM [activator, full curve] | –
COC(=O)c1ccc(NC(=O)c2ccccc2NS(C)(=O)=O)cc1 | inconclusive: 7.94 µM [inhibitor, partial curve] | –
O=C(CSc1ccc(-c2ccccn2)nn1)c1ccc(F)cc1 | inconclusive: 12.6 µM [inhibitor, single point] | –
COc1ccc(NC(=O)CNC(=O)Cn2c(C)cc3ccccc3c2=O)cc1OC | inconclusive: 35.5 µM [inhibitor, partial curve] | –
CCn1cc(C(=O)NC2CCC(C)CC2)c(=O)c2cc(S(=O)(=O)N3CCCCC3)ccc21 (centres undefined) | inconclusive: 35.5 µM [inhibitor, single point] | –
O=C(C(Cc1ccccc1)n1cccc1)N1CCN(Cc2ccccc2)CC1 (centres undefined) | inconclusive: 12.6 µM [activator, single point] | –
CCOC(=O)c1c(NC(=O)c2cccs2)sc2c1CCN(C(=O)OCC)C2 | inconclusive: 35.5 µM [inhibitor, single point] | –
Cc1cc(NS(=O)(=O)c2ccccc2)cc(Cl)c1O | inconclusive: 2.24 µM [activator, full curve] | –
COc1ccc(S(=O)(=O)NC(C)C(=O)Nc2ccccc2F)cc1 (centres undefined) | inactive | –
Cc1cc(Oc2ccc(-c3ccccc3)cc2)nc(N2CCOCC2)n1 | inconclusive: 11.2 µM [inhibitor, single point] | –
COC(=O)c1[nH]c(=O)c2ccccc2c1O | inconclusive: 0.0316 µM [inhibitor, full curve, poor fit] | –
Cc1ccc(-c2cc(-c3ccc(F)cc3)c(C#N)c(N)n2)o1 | inconclusive: 35.5 µM [inhibitor, single point] | –
COc1ccc(OC)c(/C=N/Nc2nncn2/N=C/c2cc(OC)ccc2OC)c1 | inconclusive: 35.5 µM [inhibitor, single point] | –
COc1ccc(Nc2ncc(C(=O)N3CCN(c4ccc(F)cc4)CC3)c3ccccc23)cc1 | inactive | –
CCN(CC)CCNC(=O)c1c(C)[nH]c(/C=C2\C(=O)Nc3ccc(F)cc32)c1C | inconclusive: 35.5 µM [inhibitor, single point] | –
COc1ccc(-c2c3c(=O)n(C)c(=O)n(C)c3cn2-c2cc(OC)ccc2OC)cc1 | inconclusive: 7.94 µM [activator, partial curve] | –
CCCn1c(NC(=O)c2cccc(C)c2C)nc2ccccc21 | active: 6.31 µM | –
